Results from one PubChem assay

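Luminescence from an EWS-FLI1 target-promoter (NR0B1) reporter, set against a CMV-promoter reporter, two days after silencing single genes in TC32 Ewing sarcoma cells.
Each siRNA was applied at 20 nM.
A z-score of the log NR0B1-over-CMV signal, less the median of siRNAs with the same seed; more negative means a stronger specific loss of the NR0B1 reporter.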

This is part of the screen; most of the strongest results are not listed here.
Sequences are the guide (antisense) strand, without overhang.

Sequence | target gene | seed-corrected z-score
AAGCAUAUAAGUCUUGUUC | LYSMD4 | 1.619
UCCCGUAACAUAGCAGGUG | PRRC2A | 1.419
UUGGUGUCAGAGUCCGGUC | MSC | -0.2714
UACUGGGUAAAACUCCUUG | CYP4Z1 | 1.085
UGACCAUAGUGAGUCUUCC | NBN | 0.5679
UGAAUUUUGGUAAAGAUCG | DEFB1 | 1.505
UCUCAUGAUAUAGACCUCC | CFH | 0.03718
UACACUUGAGCCUUCUCCC | SLC23A3 | -1.314
UAGACCUUGACCUUAAGGC | UNC5B | 0.3377
UGAUGAACCAGUUCAUGUA | SPNS3 | 0.5129
UAAUGGAUCGCAACUCUGG | LY86 | 1.018
UCUGGUACAUGCGGAUGCC | LRFN3 | -0.03273
UUCAUUACAAGUAUUCACC | SMCO2 | -0.005507
UCUUCAUUAACCUCAAUCA | SMLR1 | 0.5118
UGAGCUGAGAAUAGUGGGC | FAM102A | -1.559
UUUGUGAUAAAAGCUGCAG | SLC25A33 | 0.8144
AAAAGUCUAAGCUGUCAGC | HOXA2 | 1.341
UUCGGAAUUGAUUCAUAUC | CROT | 0.7196
AAUGUUAAGCCAAAGAAGG | FLJ32255 | 1.233
AAAGUAUCGAGAAGAAGCU | SLC16A11 | -0.2685
UACCGUACGUAGAAAAUCC | TARS | -0.4236
UCUGGAACCAAGUGACCAC | LBX2 | 0.7385
AUAGGUUUGCUGUUCAUAC | EIF3L | 0.08315
UUUAGAGCUUGAAUCACUG | NKAP | 0.5346
UUUGUUCCAUCUUAUACAG | ACTR3C | 2.21
UUCUGAUACGCCUCUGAUG | SLC45A1 | -0.2635
UGGAUGAUCAUGCUCUCCC | GCM1 | -0.3961
UUGCACUCAGCUCCAGUCC | PTN | 0.0458
UAUGGUGUUGGAUCAUAGG | GMPPA | 0.3497
UAAACAGAAACCUGCGUCC | CHRFAM7A | 0.1237
UCCGUUCUCAUUCUGGGUG | FAM63B | 0.2253
UUCACUUCGGGCACUAGGC | F11R | 1.172
UUUCGAUUCAAACUCCAGC | CCDC57 | 0.02119
UUGGGCAGAACUGAACUCC | NDOR1 | 1.578
UAUUGCUAUAUCCUUCACC | RYK | -0.07382
UUCCGUGGAAGAAAAGUUG | AMOTL1 | -0.2002
ACAGCGAUUCCUUCGAGCC | RADIL | -0.1751
UCCAUGGGUAGAAGAAUCC | TMEM190 | 0.4539
UUCGUUAAGGUUCAUGUCC | DIAPH2 | -0.004182
UUUGUCUUUGAACUUAUCG | NKIRAS1 | -0.6018
UCAACUUGCAUCUCUAUAC | HTR2C | 0.7786
UAUAUAUCAAGGUCCUAUC | ARPC3 | -0.7463
UUCUUUCAAGGAAUCCUUG | ALG13 | -0.515
UUCUUUGUCAGAGUCCCGC | RMDN3 | 1.436
UAAUUGACGGCAAAGUAUC | CA5B | 0.6936
UAAAUCGCCUGAACCUUCU | MEIS1-AS3 | -0.002725
UUGCCUAUGACGUGCCUGG | SAPCD2 | -1.036
UUAGUUGGUGUUCCUAUCC | PFKFB1 | -0.2213
UGUCGUCUUAGUGAAGCUG | MFF | -0.0929
AAGGGUUCCAGGAAGCAUC | RAD54L2 | 0.8236
UAUAUGCAUAGGUUUUUCU | ROPN1L | 0.3153
UCGUGCUCCAAUUAUAGCC | PVR | -0.4523

Once more, the final 7:

| Sequence | target gene | seed-corrected z-score |
|---|---|---|
| `UAAAUCGCCUGAACCUUCU` | MEIS1-AS3 | -0.002725 |
| `UUGCCUAUGACGUGCCUGG` | SAPCD2 | -1.036 |
| `UUAGUUGGUGUUCCUAUCC` | PFKFB1 | -0.2213 |
| `UGUCGUCUUAGUGAAGCUG` | MFF | -0.0929 |
| `AAGGGUUCCAGGAAGCAUC` | RAD54L2 | 0.8236 |
| `UAUAUGCAUAGGUUUUUCU` | ROPN1L | 0.3153 |
| `UCGUGCUCCAAUUAUAGCC` | PVR | -0.4523 |

Source: PubChem BioAssay AID1159506 (NCATS, 2015).